Measurements reported in paper PMC5920110.
Where two headings read alike, the source gives them in different places. These are yes or no findings as the source states them, for the method shown. Binding seen in cells or lysates may run through a third protein. Some results given as binding are weak or reduced against the parent protein; the word gives no strength.

Protein sequences, listed by entry. Tags and fused reporters are not part of them.
UniProt Q14680: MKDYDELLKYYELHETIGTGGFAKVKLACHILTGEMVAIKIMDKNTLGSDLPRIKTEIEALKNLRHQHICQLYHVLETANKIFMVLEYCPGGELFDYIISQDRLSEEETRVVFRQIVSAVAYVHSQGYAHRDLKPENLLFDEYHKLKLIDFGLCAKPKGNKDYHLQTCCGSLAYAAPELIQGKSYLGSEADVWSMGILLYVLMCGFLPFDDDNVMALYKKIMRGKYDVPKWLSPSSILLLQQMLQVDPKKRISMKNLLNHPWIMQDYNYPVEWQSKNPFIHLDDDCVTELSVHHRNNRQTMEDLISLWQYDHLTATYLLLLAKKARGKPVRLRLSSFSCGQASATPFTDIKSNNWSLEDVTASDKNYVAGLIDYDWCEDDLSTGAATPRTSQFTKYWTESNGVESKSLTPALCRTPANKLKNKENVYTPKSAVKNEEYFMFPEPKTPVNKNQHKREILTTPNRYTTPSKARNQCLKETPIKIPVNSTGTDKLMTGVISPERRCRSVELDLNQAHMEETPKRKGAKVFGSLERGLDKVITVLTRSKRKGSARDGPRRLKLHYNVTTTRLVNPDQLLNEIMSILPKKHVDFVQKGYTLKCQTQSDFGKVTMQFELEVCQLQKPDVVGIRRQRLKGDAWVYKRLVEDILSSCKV
UniProt Q00987: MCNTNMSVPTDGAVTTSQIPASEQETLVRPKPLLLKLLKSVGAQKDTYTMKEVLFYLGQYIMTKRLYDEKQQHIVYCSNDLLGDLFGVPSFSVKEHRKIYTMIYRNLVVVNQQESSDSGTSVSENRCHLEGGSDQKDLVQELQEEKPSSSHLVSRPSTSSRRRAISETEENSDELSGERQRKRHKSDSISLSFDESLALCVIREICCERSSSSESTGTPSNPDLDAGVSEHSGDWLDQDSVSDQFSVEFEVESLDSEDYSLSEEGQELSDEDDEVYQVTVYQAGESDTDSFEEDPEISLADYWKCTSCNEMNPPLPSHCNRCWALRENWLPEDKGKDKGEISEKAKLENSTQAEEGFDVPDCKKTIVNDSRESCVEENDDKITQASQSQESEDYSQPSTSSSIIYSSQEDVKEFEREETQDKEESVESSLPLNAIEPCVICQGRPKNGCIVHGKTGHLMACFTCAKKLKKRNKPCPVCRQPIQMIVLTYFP

Tests used:
[1] = biological target: murine protein serine-threonine kinase 38 (MPK38)/maternal embryonic leucine zipper kinase (MELK) (human (endogenous in HEK293)) (UniProt Q14680); assay: co-IP; HEK293 cell lysates, immunoprecipitation with an anti-MPK38 antibody, immunoblot with anti-Mdm2, anti-Trx or anti-ZPR9 antibodies (endogenous complexes); cells transfected with FLAG- or GST-tagged wild-type or mutant Smads2/3/4/7 or Smad-specific siRNAs
[2] = biological target: murine protein serine-threonine kinase 38 (MPK38)/maternal embryonic leucine zipper kinase (MELK) (human (endogenous in HEK293)) (UniProt Q14680); assay: as above; remark: listed apart in the source

Mdm2 (from UniProt Q00987 1-491)
binding [1]: binds

B1: thioredoxin (Trx) (protein, UniProt P10599 1-105)
chain: MVKQIESKTAFQEALDAAGDKLVVVDFSATWCGPCKMIKPFFHSLSEKYSNVIFLEVDVDDCQDVASECEVKCMPTFQFFKKGQKVGEFSGANKEKLEATINELV
binding [2]: binds

B2: zinc-finger-like protein 9 (ZPR9) (protein, UniProt Q969S3 1-477)
chain: MATYTCITCRVAFRDADMQRAHYKTDWHRYNLRRKVASMAPVTAEGFQERVRAQRAVAEEESKGSATYCTVCSKKFASFNAYENHLKSRRHVELEKKAVQAVNRKVEMMNEKNLEKGLGVDSVDKDAMNAAIQQAIKAQPSMSPKKAPPAPAKEARNVVAVGTGGRGTHDRDPSEKPPRLQWFEQQAKKLAKQQEEDSEEEEEDLDGDDWEDIDSDEELECEDTEAMDDVVEQDAEEEEAEEGPPLGAIPITDCLFCSHHSSSLMKNVAHMTKDHSFFIPDIEYLSDIKGLIKYLGEKVGVGKICLWCNEKGKSFYSTEAVQAHMNDKSHCKLFTDGDAALEFADFYDFRSSYPDHKEGEDPNKAEELPSEKNLEYDDETMELILPSGARVGHRSLMRYYKQRFGLSRAVAVAKNRKAVGRVLQQYRALGWTGSTGAALMRERDMQYVQRMKSKWMLKTGMKNNATKQMHFRVQVRF
binding [2]: binds
